Experiment [1] has as its target CUL4B (endogenous) (human (endogenous in MCF-7, MDA-MB-231, HEK293T)) (UniProt Q13620). Put plainly: co-IP; endogenous proteins, MCF-7 whole-cell lysates (50 mM Tris-HCl pH 8.0, 150 mM NaCl, 0.5% NP40); IP with anti-CUL4B, anti-DDB1 or anti-ROC1, 12 h at 4 °C, immunoblot. For orientation: A western blot detects proteins with antibodies after separation by electrophoresis.

Amino acid sequences for entries named in this document (tags omitted).
UniProt Q13620: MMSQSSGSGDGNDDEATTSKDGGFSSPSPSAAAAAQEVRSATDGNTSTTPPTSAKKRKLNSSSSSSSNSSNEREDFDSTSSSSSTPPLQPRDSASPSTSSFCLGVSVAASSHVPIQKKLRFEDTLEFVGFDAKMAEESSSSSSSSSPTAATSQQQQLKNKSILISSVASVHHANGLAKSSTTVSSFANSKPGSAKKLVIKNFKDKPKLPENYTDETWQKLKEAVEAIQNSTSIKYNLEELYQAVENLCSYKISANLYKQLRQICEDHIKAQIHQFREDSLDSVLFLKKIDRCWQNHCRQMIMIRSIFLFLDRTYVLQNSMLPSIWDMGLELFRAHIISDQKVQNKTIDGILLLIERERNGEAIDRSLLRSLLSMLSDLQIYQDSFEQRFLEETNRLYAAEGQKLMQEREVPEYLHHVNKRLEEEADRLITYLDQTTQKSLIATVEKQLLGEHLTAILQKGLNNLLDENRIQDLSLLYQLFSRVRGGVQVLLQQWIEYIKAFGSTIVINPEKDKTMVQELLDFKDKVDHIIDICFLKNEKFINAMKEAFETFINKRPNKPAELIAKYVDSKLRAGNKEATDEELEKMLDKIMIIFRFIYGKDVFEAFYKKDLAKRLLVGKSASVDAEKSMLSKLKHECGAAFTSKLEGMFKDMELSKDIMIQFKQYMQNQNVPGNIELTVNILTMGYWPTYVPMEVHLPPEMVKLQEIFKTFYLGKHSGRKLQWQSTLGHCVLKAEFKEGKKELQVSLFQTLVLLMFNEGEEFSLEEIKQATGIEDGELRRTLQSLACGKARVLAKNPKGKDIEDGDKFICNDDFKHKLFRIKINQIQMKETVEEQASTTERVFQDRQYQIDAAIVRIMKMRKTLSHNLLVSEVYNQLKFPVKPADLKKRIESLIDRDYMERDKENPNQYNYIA
UniProt O75376: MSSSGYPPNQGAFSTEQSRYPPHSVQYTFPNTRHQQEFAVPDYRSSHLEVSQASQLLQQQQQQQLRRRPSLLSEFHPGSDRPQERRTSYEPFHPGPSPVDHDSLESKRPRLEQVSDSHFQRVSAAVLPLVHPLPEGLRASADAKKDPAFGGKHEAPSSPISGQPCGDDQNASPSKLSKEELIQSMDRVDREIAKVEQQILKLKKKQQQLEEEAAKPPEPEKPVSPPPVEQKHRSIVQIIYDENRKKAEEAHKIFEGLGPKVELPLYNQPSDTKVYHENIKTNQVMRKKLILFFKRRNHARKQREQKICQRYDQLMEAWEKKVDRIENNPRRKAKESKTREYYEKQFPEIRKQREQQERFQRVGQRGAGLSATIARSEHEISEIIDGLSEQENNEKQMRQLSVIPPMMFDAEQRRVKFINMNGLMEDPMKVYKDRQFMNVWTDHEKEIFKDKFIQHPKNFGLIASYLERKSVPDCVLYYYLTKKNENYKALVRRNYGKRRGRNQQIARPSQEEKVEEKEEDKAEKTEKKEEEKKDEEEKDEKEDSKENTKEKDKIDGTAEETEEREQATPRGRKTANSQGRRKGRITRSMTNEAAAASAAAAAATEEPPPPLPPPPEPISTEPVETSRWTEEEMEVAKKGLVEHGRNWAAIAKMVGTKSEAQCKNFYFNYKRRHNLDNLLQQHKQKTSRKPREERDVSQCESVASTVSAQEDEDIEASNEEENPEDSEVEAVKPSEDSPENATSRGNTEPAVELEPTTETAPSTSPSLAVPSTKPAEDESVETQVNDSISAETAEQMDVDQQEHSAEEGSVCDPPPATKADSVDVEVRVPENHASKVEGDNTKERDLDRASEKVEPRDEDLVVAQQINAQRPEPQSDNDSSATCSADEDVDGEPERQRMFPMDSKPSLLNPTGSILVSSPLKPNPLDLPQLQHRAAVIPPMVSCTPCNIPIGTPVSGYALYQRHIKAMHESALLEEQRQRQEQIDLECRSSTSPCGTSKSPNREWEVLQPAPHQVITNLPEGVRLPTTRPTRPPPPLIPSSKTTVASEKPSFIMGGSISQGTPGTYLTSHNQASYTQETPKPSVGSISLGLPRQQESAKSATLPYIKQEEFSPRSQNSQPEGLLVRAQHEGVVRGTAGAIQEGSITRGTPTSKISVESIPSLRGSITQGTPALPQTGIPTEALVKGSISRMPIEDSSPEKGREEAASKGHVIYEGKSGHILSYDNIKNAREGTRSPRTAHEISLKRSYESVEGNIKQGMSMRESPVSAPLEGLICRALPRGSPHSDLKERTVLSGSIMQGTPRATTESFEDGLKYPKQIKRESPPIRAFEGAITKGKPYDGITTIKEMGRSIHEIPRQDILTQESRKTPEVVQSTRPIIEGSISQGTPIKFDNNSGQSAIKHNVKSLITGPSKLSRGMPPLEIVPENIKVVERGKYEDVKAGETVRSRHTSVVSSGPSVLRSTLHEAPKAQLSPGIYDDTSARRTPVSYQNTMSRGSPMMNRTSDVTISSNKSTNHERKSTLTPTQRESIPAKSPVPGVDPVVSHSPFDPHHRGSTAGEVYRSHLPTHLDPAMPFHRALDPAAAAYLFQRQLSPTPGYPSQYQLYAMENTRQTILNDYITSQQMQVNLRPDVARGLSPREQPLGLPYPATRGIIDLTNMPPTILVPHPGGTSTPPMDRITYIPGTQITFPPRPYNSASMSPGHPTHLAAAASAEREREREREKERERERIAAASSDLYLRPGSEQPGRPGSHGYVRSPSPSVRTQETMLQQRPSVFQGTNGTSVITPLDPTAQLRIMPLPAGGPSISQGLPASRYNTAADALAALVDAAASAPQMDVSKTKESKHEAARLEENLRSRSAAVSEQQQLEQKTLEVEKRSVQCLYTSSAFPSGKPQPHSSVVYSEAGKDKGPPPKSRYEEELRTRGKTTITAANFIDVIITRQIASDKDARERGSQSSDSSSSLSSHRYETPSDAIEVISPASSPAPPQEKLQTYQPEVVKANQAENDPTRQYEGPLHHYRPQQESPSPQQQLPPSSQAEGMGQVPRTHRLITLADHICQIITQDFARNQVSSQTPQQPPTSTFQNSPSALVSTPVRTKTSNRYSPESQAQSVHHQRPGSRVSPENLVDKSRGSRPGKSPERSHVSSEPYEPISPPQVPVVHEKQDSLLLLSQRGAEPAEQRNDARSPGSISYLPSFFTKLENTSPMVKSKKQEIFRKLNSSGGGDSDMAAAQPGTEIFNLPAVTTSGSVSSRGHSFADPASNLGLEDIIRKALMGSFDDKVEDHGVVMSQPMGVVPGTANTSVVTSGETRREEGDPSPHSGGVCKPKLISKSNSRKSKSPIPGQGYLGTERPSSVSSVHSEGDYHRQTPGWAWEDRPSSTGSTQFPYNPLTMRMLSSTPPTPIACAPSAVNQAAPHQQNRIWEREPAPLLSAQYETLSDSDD
UniProt Q9UKL0: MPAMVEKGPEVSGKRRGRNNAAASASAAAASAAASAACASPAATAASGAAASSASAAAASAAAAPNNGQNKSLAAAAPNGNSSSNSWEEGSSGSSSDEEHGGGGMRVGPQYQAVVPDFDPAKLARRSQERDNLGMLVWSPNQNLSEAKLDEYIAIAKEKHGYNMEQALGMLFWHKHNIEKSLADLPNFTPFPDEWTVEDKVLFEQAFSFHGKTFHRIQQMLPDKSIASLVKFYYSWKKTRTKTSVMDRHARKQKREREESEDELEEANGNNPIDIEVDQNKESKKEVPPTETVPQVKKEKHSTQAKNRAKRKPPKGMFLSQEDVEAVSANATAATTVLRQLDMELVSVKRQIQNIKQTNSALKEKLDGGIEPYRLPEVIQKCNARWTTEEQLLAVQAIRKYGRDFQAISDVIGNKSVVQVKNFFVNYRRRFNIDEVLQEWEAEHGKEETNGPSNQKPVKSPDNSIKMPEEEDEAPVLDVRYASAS
UniProt Q13227: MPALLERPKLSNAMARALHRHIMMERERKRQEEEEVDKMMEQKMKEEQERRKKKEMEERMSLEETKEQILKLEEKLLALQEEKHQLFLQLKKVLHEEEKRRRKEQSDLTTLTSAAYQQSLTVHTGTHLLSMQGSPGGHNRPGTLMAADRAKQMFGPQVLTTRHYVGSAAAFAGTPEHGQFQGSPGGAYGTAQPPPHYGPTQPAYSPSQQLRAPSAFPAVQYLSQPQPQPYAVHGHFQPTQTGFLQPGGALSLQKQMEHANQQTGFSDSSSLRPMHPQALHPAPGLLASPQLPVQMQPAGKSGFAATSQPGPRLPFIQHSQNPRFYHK
UniProt O95863: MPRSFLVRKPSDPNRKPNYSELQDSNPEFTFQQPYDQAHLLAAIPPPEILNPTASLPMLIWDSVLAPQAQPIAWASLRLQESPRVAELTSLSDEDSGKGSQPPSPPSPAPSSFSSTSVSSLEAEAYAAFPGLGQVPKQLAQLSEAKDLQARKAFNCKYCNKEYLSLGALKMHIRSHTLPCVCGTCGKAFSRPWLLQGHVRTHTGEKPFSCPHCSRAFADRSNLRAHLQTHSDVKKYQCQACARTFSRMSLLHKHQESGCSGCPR
UniProt Q96BD5: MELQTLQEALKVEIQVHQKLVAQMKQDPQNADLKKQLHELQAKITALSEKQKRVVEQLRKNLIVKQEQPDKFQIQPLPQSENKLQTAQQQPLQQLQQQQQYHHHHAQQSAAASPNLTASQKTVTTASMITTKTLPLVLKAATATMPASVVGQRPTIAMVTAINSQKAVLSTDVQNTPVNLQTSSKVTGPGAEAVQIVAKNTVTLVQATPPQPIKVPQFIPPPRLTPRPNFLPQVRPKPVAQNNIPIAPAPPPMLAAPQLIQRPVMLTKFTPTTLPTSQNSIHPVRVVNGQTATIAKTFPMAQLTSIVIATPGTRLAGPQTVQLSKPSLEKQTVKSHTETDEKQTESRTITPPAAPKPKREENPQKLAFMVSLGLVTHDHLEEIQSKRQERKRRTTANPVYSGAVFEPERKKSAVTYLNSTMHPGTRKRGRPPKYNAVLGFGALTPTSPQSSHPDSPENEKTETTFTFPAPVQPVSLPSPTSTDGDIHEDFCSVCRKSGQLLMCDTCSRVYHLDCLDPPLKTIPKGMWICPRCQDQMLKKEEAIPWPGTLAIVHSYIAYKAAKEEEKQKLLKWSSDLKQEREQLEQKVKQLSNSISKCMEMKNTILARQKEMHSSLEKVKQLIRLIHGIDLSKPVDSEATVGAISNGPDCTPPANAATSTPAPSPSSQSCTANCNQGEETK
UniProt Q15672: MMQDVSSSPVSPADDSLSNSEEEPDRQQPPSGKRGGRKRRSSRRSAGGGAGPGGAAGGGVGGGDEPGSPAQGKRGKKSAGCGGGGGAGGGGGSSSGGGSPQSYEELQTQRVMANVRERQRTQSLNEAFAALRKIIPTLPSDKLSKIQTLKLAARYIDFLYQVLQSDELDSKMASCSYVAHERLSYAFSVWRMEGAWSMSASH
UniProt Q09028: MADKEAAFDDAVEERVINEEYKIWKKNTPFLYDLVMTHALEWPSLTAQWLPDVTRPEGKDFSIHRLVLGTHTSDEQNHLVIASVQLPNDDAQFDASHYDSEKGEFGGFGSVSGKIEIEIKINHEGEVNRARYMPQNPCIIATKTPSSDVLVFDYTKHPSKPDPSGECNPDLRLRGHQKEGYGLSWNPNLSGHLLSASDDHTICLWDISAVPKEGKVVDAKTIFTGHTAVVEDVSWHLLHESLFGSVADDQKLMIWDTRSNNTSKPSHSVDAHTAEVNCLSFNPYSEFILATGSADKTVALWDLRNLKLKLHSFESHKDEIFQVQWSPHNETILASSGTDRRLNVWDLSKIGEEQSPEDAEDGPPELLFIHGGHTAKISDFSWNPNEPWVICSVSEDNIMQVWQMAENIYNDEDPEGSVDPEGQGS

The target is the same in experiment [2]. The experiment can be described thus: co-IP; endogenous proteins, MDA-MB-231 cells; IP with anti-CUL4B, immunoblot.
For experiment [3] the target is unchanged. Put plainly: co-IP; endogenous proteins, MCF-7 whole-cell lysates (50 mM Tris-HCl pH 8.0, 150 mM NaCl, 0.5% NP40); IP with anti-CUL4B, anti-DDB1 or anti-ROC1, 12 h at 4 °C, immunoblot. The source holds these as a separate data set.

Results are given in words; binding and its absence hold for the method and conditions named. In cells and extracts the contact can be indirect. Some results given as binding are weak or reduced against the parent protein; the word gives no strength.

As to “NCoR (endogenous) (from UniProt O75376 1-2440)”, the binding result in experiment [1] is “binds”.
The same measure, in the same setting: next, “CoREST (endogenous) (from UniProt Q9UKL0 1-485)”: “binds”; “GPS2 (endogenous) (from UniProt Q13227 1-327)”: “binds”.
Consider “Snail (endogenous) (from UniProt O95863 1-264)”, for which, in experiment [2], the binding entry is “binds”.
With “BHC80 (endogenous) (from UniProt Q96BD5 1-680)”, the binding entry in experiment [1] was “binds”.
As for “CTBP2 (endogenous) (from UniProt P56545 1-445)”, the binding result in experiment [1] is given as “binds”.
Take “Twist (endogenous) (from UniProt Q15672 1-202)”: the binding result in experiment [2] was “binds”.
Regarding “RbAp48 (endogenous) (from UniProt Q09028 1-425)”, in experiment [1], the binding entry is recorded as “binds”.

B1: SAP30 (endogenous) (protein, UniProt O75446 1-220)
chain: MNGFTPDEMSRGGDAAAAVAAVVAAAAAAASAGNGTGAGTGAEVPGAGAVSAAGPPGAAGPGPGQLCCLREDGERCGRAAGNASFSKRIQKSISQKKVKIELDKSARHLYICDYHKNLIQSVRNRRKRKGSDDDGGDSPVQDIDTPEVDLYQLQVNTLRRYKRHFKLPTRPGLNKAQLVEIVGCHFRSIPVNEKDTLTYFIYSVKNDKNKSDLKVDSGVH
As to B1, in experiment [3], the binding entry was “binds”.

B2: SAP180 (endogenous) (protein, UniProt Q4LE39 1-1312)
chain: MKALDEPPYLTVGTDVSAKYRGAFCEAKIKTAKRLVKVKVTFRHDSSTVEVQDDHIKGPLKVGAIVEVKNLDGAYQEAVINKLTDASWYTVVFDDGDEKTLRRSSLCLKGERHFAESETLDQLPLTNPEHFGTPVIGKKTNRGRRSNHIPEEESSSSSSDEDEDDRKQIDELLGKVVCVDYISLDKKKALWFPALVVCPDCSDEIAVKKDNILVRSFKDGKFTSVPRKDVHEITSDTAPKPDAVLKQAFEQALEFHKSRTIPANWKTELKEDSSSSEAEEEEEEEDDEKEKEDNSSEEEEEIEPFPEERENFLQQLYKFMEDRGTPINKRPVLGYRNLNLFKLFRLVHKLGGFDNIESGAVWKQVYQDLGIPVLNSAAGYNVKCAYKKYLYGFEEYCRSANIEFQMALPEKVVNKQCKECENVKEIKVKEENETEIKEIKMEEERNIIPREEKPIEDEIERKENIKPSLGSKKNLLESIPTHSDQEKEVNIKKPEDNENLDDKDDDTTRVDESLNIKVEAEEEKAKSGDETNKEEDEDDEEAEEEEEEEEEEEDEDDDDNNEEEEFECYPPGMKVQVRYGRGKNQKMYEASIKDSDVEGGEVLYLVHYCGWNVRYDEWIKADKIVRPADKNVPKIKHRKKIKNKLDKEKDKDEKYSPKNCKLRRLSKPPFQTNPSPEMVSKLDLTDAKNSDTAHIKSIEITSILNGLQASESSAEDSEQEDERGAQDMDNNGKEESKIDHLTNNRNDLISKEEQNSSSLLEENKVHADLVISKPVSKSPERLRKDIEVLSEDTDYEEDEVTKKRKDVKKDTTDKSSKPQIKRGKRRYCNTEECLKTGSPGKKEEKAKNKESLCMENSSNSSSDEDEEETKAKMTPTKKYNGLEEKRKSLRTTGFYSGFSEVAEKRIKLLNNSDERLQNSRAKDRKDVWSSIQGQWPKKTLKELFSDSDTEAAASPPHPAPEEGVAEESLQTVAEEESCSPSVELEKPPPVNVDSKPIEEKTVEVNDRKAEFPSSGSNSVLNTPPTTPESPSSVTVTEGSRQQSSVTVSEPLAPNQEEVRSIKSETDSTIEVDSVAGELQDLQSEGNSSPAGFDASVSSSSSNQPEPEHPEKACTGQKRVKDAQGGGSSSKKQKRSHKATVVNNKKKGKGTNSSDSEELSAGESITKSQPVKSVSTGMKSHSTKSPARTQSPGKCGKNGDKDPDLKEPSNRLPKVYKWSFQMSDLENMTSAERITILQEKLQEIRKHYLSLKSEVASIDRRRKRLKKKERESAATSSSSSSPSSSSITAAVMLTLAEPSMSSASQNGMSVECR
B2: in experiment [3], the binding entry was “binds”.

B3: SAP130 (endogenous) (protein, UniProt Q9H0E3 1-1048)
chain: MGPPRHPQAGEIEAGGAGGGRRLQVEMSSQQFPRLGAPSTGLSQAPSQIANSGSAGLINPAATVNDESGRDSEVSAREHMSSSSSLQSREEKQEPVVVRPYPQVQMLSTHHAVASATPVAVTAPPAHLTPAVPLSFSEGLMKPPPKPTMPSRPIAPAPPSTLSLPPKVPGQVTVTMESSIPQASAIPVATISGQQGHPSNLHHIMTTNVQMSIIRSNAPGPPLHIGASHLPRGAAAAAVMSSSKVTTVLRPTSQLPNAATAQPAVQHIIHQPIQSRPPVTTSNAIPPAVVATVSATRAQSPVITTTAAHATDSALSRPTLSIQHPPSAAISIQRPAQSRDVTTRITLPSHPALGTPKQQLHTMAQKTIFSTGTPVAAATVAPILATNTIPSATTAGSVSHTQAPTSTIVTMTVPSHSSHATAVTTSNIPVAKVVPQQITHTSPRIQPDYPAERSSLIPISGHRASPNPVAMETRSDNRPSVPVQFQYFLPTYPPSAYPLAAHTYTPITSSVSTIRQYPVSAQAPNSAITAQTGVGVASTVHLNPMQLMTVDASHARHIQGIQPAPISTQGIQPAPIGTPGIQPAPLGTQGIHSATPINTQGLQPAPMGTQQPQPEGKTSAVVLADGATIVANPISNPFSAAPAATTVVQTHSQSASTNAPAQGSSPRPSILRKKPATDGAKPKSEIHVSMATPVTVSMETVSNQNNDQPTIAVPPTAQQPPPTIPTMIAAASPPSQPAVALSTIPGAVPITPPITTIAAAPPPSVTVGGSLSSVLGPPVPEIKVKEEVEPMDIMRPVSAVPPLATNTVSPSLALLANNLSMPTSDLPPGASPRKKPRKQQHVISTEEGDMMETNSTDDEKSTAKSLLVKAEKRKSPPKEYIDEEGVRYVPVRPRPPITLLRHYRNPWKAAYHHFQRYSDVRVKEEKKAMLQEIANQKGVSCRAQGWKVHLCAAQLLQLTNLEHDVYERLTNLQEGIIPKKKAATDDDLHRINELIQGNMQRCKLVMDQISEARDSMLKVLDHKDRVLKLLNKNGTVKKVSKLKRKEKV
Regarding B3, the binding entry in experiment [3] is “binds”.

B4: SAP18 (endogenous) (protein, UniProt O00422 1-153)
chain: MAVESRVTQEEIKKEPEKPIDREKTCPLLLRVFTTNNGRHHRMDEFSRGNVPSSELQIYTWMDATLKELTSLVKEVYPEARKKGTHFNFAIVFTDVKRPGYRVKEIGSTMSGRKGTDDSMTLQSQKFQIGDYLDIAITPPNRAPPPSGRMRPY
Turning to B4, the binding result in experiment [3] is given as “binds”.

B5: REST (endogenous) (protein, UniProt Q13127 1-1097)
chain: MATQVMGQSSGGGGLFTSSGNIGMALPNDMYDLHDLSKAELAAPQLIMLANVALTGEVNGSCCDYLVGEERQMAELMPVGDNNFSDSEEGEGLEESADIKGEPHGLENMELRSLELSVVEPQPVFEASGAPDIYSSNKDLPPETPGAEDKGKSSKTKPFRCKPCQYEAESEEQFVHHIRVHSAKKFFVEESAEKQAKARESGSSTAEEGDFSKGPIRCDRCGYNTNRYDHYTAHLKHHTRAGDNERVYKCIICTYTTVSEYHWRKHLRNHFPRKVYTCGKCNYFSDRKNNYVQHVRTHTGERPYKCELCPYSSSQKTHLTRHMRTHSGEKPFKCDQCSYVASNQHEVTRHARQVHNGPKPLNCPHCDYKTADRSNFKKHVELHVNPRQFNCPVCDYAASKKCNLQYHFKSKHPTCPNKTMDVSKVKLKKTKKREADLPDNITNEKTEIEQTKIKGDVAGKKNEKSVKAEKRDVSKEKKPSNNVSVIQVTTRTRKSVTEVKEMDVHTGSNSEKFSKTKKSKRKLEVDSHSLHGPVNDEESSTKKKKKVESKSKNNSQEVPKGDSKVEENKKQNTCMKKSTKKKTLKNKSSKKSSKPPQKEPVEKGSAQMDPPQMGPAPTEAVQKGPVQVEPPPPMEHAQMEGAQIRPAPDEPVQMEVVQEGPAQKELLPPVEPAQMVGAQIVLAHMELPPPMETAQTEVAQMGPAPMEPAQMEVAQVESAPMQVVQKEPVQMELSPPMEVVQKEPVQIELSPPMEVVQKEPVKIELSPPIEVVQKEPVQMELSPPMGVVQKEPAQREPPPPREPPLHMEPISKKPPLRKDKKEKSNMQSERARKEQVLIEVGLVPVKDSWLLKESVSTEDLSPPSPPLPKENLREEASGDQKLLNTGEGNKEAPLQKVGAEEADESLPGLAANINESTHISSSGQNLNTPEGETLNGKHQTDSIVCEMKMDTDQNTRENLTGINSTVEEPVSPMLPPSAVEEREAVSKTALASPPATMAANESQEIDEDEGIHSHEGSDLSDNMSEGSDDSGLHGARPVPQESSRKNAKEALAVKAAKGDFVCIFCDRSFRKGKDYSKHLNRHLVNVYYLEEAAQGQE
On to B5, for which the binding result in experiment [3] was “binds”.

B6: Slug (endogenous) (protein, UniProt O43623 1-268)
chain: MPRSFLVKKHFNASKKPNYSELDTHTVIISPYLYESYSMPVIPQPEILSSGAYSPITVWTTAAPFHAQLPNGLSPLSGYSSSLGRVSPPPPSDTSSKDHSGSESPISDEEERLQSKLSDPHAIEAEKFQCNLCNKTYSTFSGLAKHKQLHCDAQSRKSFSCKYCDKEYVSLGALKMHIRTHTLPCVCKICGKAFSRPWLLQGHIRTHTGEKPFSCPHCNRAFADRSNLRAHLQTHSDVKKYQCKNCSKTFSRMSLLHKHEESGCCVAH
As to B6, the binding result in experiment [2] is “binds”.

For the origin of these results see paper PMC8132058.
